PubChem BioAssay AID2685 (National Center for Advancing Translational Sciences (NCATS), 2010)
Some of the results follow. Shown are side measurements of this screen, not its main read-out; they come without a call. The list favours compounds with an active or inconclusive main result. The note in brackets gives the kind of curve behind each potency; many fits are weak.

Assay: qHTS Assay for Lipid Storage Modulators in Drosophila S3 Cells;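 on cell number change: cells counted by Cell Tracker Red CMTPX staining in the red channel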
Details: BODIPY lipid droplet fluorescence, 18-24 h; for cell number change: measured here: cell count max response, cells fed with added oleic acid
In short: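 Drosophila S3 cells got compounds at several concentrations plus oleic acid (400 uM solution). Laser-scanning cytometry with 488 nm excitation read lipid droplets at 500-530 nm and cells at 575-640 nm. Percent activity was relative to 20 uM Triacsin C.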

[1] = measured here: cell number channel AC50, cells fed with added oleic acid
[2] = measured here: lipid fluorescence (Fed channel) AC50, cells fed with added oleic acid

| SMILES | cell number change | AC50 [1] | AC50 [2] |
| --- | --- | --- | --- |
| O=C(COC(=O)c1ccccc1)Nc1cccc(S(=O)(=O)NC2=NCCCCC2)c1 | -47.6% | 0.206 µM [falling, full curve, poor fit] |  |
| COc1ccc(CC(=O)Nc2cccc(-c3nnc(-c4ccco4)o3)c2)cc1 | -1.72% |  | 23.1 µM [falling, single point] |
| CC(C)NC(=O)CSc1nc(Cc2cccs2)nc2ccccc12 |  |  | 5.17 µM [rising, partial curve] |
| Cc1nn(C2CCS(=O)(=O)C2)c2nc(C3CC3)cc(C(=O)Nc3cccc(C#N)c3)c12 (stereo not given) |  | 5.8 µM [rising, partial curve, poor fit] |  |
| COC(/C=C/Nc1ccc(C)c(C)c1)=C(C#N)C#N | -40.1% | 0.517 µM [falling, full curve, poor fit] | 2.59 µM [falling, full curve] |
| CN(C)c1ccc(/C=N/NC(=O)CCCO)cc1 |  |  | 29.1 µM [rising, single point] |
| N#C/C(=C/c1cccs1)c1nc2ccccc2[nH]1 | 8.15% |  | 0.517 µM [rising, full curve] |
| COc1ccc(OC(=O)COc2ccc(C)cc2)cc1 | 16.3% |  | 2.31 µM [rising, single point] |
| COc1ccccc1N1CCN(C(=O)/C=C/c2ccc(C)cc2)CC1 | -36.6% | 3.66 µM [rising, partial curve] |  |
| CSc1ccc(C(c2c(C(=O)O)[nH]c3ccccc23)c2c(C(=O)O)[nH]c3ccccc23)cc1 | 5.11% |  |  |
| N#CCC(=O)Nc1cc(C(F)(F)F)ccc1N1CCOCC1 | 3.69% |  | 0.082 µM [falling, single point] |
| CC(C)N(C(C)C)S(=O)(=O)c1ccc(N2CCc3ccccc3C2)nc1 | -11.1% |  | 29.1 µM [rising, single point] |
| COc1ccc(CNC(=O)COC(=O)CO/N=C(\C)c2ccc3c(c2)OCO3)cc1 | -14.3% |  | 0.651 µM [falling, partial curve, poor fit] |
| Nc1c(C(=O)NC2CCCCC2)c2nc3ccccc3nc2n1/N=C/c1ccco1 | -15.4% |  | 16.4 µM [rising, single point] |
| CC(C)CN1C(=O)CC(Sc2ccccc2C(=O)O)C1=O (stereo not given) | -19.4% |  | 1.84 µM [falling, full curve] |
| Cn1cnc(S(=O)(=O)N2CCN(C(c3ccccc3)c3ccccc3)CC2)c1 | -6.12% |  | 0.0164 µM [falling, full curve] |
| COc1ccccc1-n1c(=O)oc2ccc(Cl)cc2c1=O | 10.1% |  | 29.1 µM [falling, partial curve] |
| CC(=O)c1ccc(NC(=O)C(C)OC(=O)CCN=C2NS(=O)(=O)c3ccccc32)cc1 (stereo not given) | -7.36% |  | 29.1 µM [rising, single point] |
| N#Cc1c(N)nc(SCC(=O)NCCc2ccccc2)c(C#N)c1-c1cccs1 | -25.6% |  | 18.4 µM [falling, single point] |
| O=C(O)/C(=C\c1ccc(-c2ccccc2[N+](=O)[O-])o1)c1ccccc1 | 24.9% |  |  |

Structures from the list above with a halogen (two):

| SMILES | cell number change | AC50 [1] | AC50 [2] |
| --- | --- | --- | --- |
| N#CCC(=O)Nc1cc(C(F)(F)F)ccc1N1CCOCC1 | 3.69% |  | 0.082 µM [falling, single point] |
| COc1ccccc1-n1c(=O)oc2ccc(Cl)cc2c1=O | 10.1% |  | 29.1 µM [falling, partial curve] |

Remaining list, next part:

| SMILES | cell number change | AC50 [1] | AC50 [2] |
| --- | --- | --- | --- |
| COc1ccc(CN2CSC(=S)N(Cc3ccccc3)C2)cc1 | 0.824% |  | 6.51 µM [rising, single point] |
| CCN(CC)c1ccc(NC(=O)c2cnc3ccccn3c2=O)c(C)c1 | 4.38% |  |  |
| Cc1ccc(-c2nn(-c3ccccc3)cc2/C=N/NC(=O)CSc2nnc(C)n2-c2ccccc2)cc1 | -21.5% |  | 16.4 µM [falling, single point] |
| CC(=O)N1CCC(C(=O)NC2CCCc3c2cnn3-c2cc(F)cc(F)c2)CC1 (stereo not given) | 43.2% | 8.2 µM [rising, partial curve] | 29.1 µM [rising, single point] |
| CCOC(=O)C(C(C)=O)=C1SC2CS(=O)(=O)CC2S1 (stereo not given) | 0.612% |  | 0.00517 µM [falling, full curve] |
| COc1ccc(Cl)cc1NC(=O)CN(C)Cc1cccs1 | 1.59% |  | 6.51 µM [falling, single point] |
| CC(C)CNC(=S)NNC(=O)c1ccccc1OC(F)F | 49.7% | 1.16 µM [rising, full curve] |  |
| Cc1ccc(N(C(=O)Cc2cccs2)C(C(=O)NC2CCCC2)c2ccncc2)cc1 (stereo not given) | -18.4% |  | 29.1 µM [falling, single point] |
| CC(=O)Nc1ccc(C(=O)Nc2nc(-c3cc(C)n(Cc4ccccc4)c3C)cs2)cc1 | 21.2% |  | 0.291 µM [rising, partial curve, poor fit] |
| Cc1ccc(O)c(NC(=O)c2cc(-c3cccs3)on2)c1 | 30.4% | 20.6 µM [rising, partial curve, poor fit] |  |
| NC(=O)c1ccc(Oc2ccc3c(c2)CCC3)c([N+](=O)[O-])c1 |  |  | 3.66 µM [falling, partial curve] |
| CN(C)N(Cc1ccccc1)C(=O)C(O)(c1ccccc1)c1ccccc1 | -11.6% |  | 16.4 µM [falling, single point] |
| COc1ccccc1N1CC(O)=C(c2nc3ccccc3s2)C1=N | -23.1% |  | 0.58 µM [rising, single point] |
| CCCCCN(C(=O)CCC(=O)OCCOc1cccc(Cl)c1)c1c(N)n(CCCC)c(=O)[nH]c1=O | 25% | 4.11 µM [rising, full curve, poor fit] | 6.51 µM [falling, single point] |
| Cc1cc(C)c(OCC(=O)OCC(=O)N2CCc3ccccc3C2)c(C)c1 |  |  | 29.1 µM [rising, single point] |
| CC(C)(C)c1ccc(-c2nc(NCc3cccnc3)c3ccccc3n2)cc1 | -38.2% | 16.4 µM [falling, single point] | 7.31 µM [falling, partial curve] |
| CCc1cccc(C)c1NS(=O)(=O)c1cc(Br)cnc1N | 6.6% |  | 29.1 µM [rising, single point] |
| C/C=C/c1ccc(OCC(O)CN(C)Cc2ccc(SC)cc2)c(OC)c1 (stereo not given) | -29% |  | 23.1 µM [falling, single point] |
| C=CCc1cc(/C=C2/NC(=O)N(CC)C2=O)cc(OCC)c1OCc1ccc(C(=O)O)cc1 | 30.5% | 6.51 µM [rising, partial curve] | 7.31 µM [rising, partial curve] |
